Values as published with doi:10.1371/journal.pone.0140310, rounded.

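Human melanoma cell lines in 1,536-well plates were treated with a pair of drugs for 72 h, then fixed, stained and imaged. Values are the share of nuclei positive for cleaved PARP as a percentage of the same share in the DMSO control: 100 is the control level, higher means more apoptosis. Every drug was used at one fixed concentration, the higher of two screened. These are primary screening values without error estimates. Basal and induced levels differ widely between cell lines.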
An unselected part of the screen is shown.
A dash means that no value is listed here.

Drug key:
BMS-536924: Cc1cc(N2CCOCC2)cc2[nH]c(-c3c(NC[C@@H](O)c4cccc(Cl)c4)cc[nH]c3=O)nc12 at 1 µM
Src-I1: COc1cc2ncnc(Nc3ccc(Oc4ccccc4)cc3)c2cc1OC at 10 µM
OSI-906: C[C@]1(O)C[C@@H](c2nc(-c3ccc4ccc(-c5ccccc5)nc4c3)c3c(N)nccn32)C1 at 2 µM
bortezomib: CC(C)C[C@H](NC(=O)[C@H](Cc1ccccc1)NC(=O)c1cnccn1)B(O)O at 0.005 µM
A-769662: N#Cc1c(O)c2c(-c3ccc(-c4ccccc4O)cc3)csc2[nH]c1=O at 10 µM
pazopanib: Cc1ccc(Nc2nccc(N(C)c3ccc4c(C)n(C)nc4c3)n2)cc1S(N)(=O)=O at 2 µM
perifosine: CCCCCCCCCCCCCCCCCCOP(=O)([O-])OC1CC[N+](C)(C)CC1 at 2 µM
PD173074: CCN(CC)CCCCNc1ncc2cc(-c3cc(OC)cc(OC)c3)c(NC(=O)NC(C)(C)C)nc2n1 at 0.5 µM
temozolomide: Cn1nnc2c(C(N)=O)ncn2c1=O at 10 µM
AS-252424: O=C1NC(=O)/C(=C/c2ccc(-c3ccc(F)cc3O)o2)S1 at 5 µM

Combination,WM3619,UACC-62,501mel,MZ2-MEL,WM1745,WM1716,WM451Lu,MeWo,UACC-257,RPMI-7951,G-361,SK-MEL-5,RVH-421,IST-MEL1,LB2518-MEL
perifosine and Src-I1,90.3,349,75.1,120,-,103,54.3,202,33.0,1600,231,65.0,54.4,65.3,149
BMS-536924 and PD173074,137,105,248,193,189,180,82.7,90.8,42.2,93.2,68.2,237,118,270,76.4
temozolomide and BMS-536924,104,194,-,172,137,446,42.0,139,63.5,46.2,58.9,67.3,55.0,323,204
temozolomide and perifosine,97.3,142,-,43.1,84.1,341,152,90.3,32.0,145,79.0,115,136,83.9,49.2
BMS-536924 and pazopanib,114,118,-,70.5,137,107,140,69.5,75.9,105,99.0,63.6,191,242,181
BMS-536924 and AS-252424,119,147,193,155,205,93.1,113,74.5,14.4,143,174,128,70.6,59.4,162
BMS-536924 and Src-I1,656,321,139,108,255,75.3,144,199,24.0,96.7,196,261,43.9,237,56.7
bortezomib and AS-252424,1370,288,1920,23000,-,12300,5330,2810,113,2390,2210,330,345,782,1680
OSI-906 and pazopanib,89.5,68.1,-,186,132,31.8,86.5,99.1,44.5,138,149,289,117,165,181
A-769662 and AS-252424,108,22.1,123,83.2,98.9,81.5,129,61.7,14.1,52.6,89.7,85.3,92.2,59.5,63.8
OSI-906 and PD173074,95.6,138,144,25.6,-,180,120,131,58.2,102,168,108,155,139,118
BMS-536924 and perifosine,78.0,88.0,-,110,116,121,62.1,70.7,33.3,119,72.1,43.8,27.0,105,103
temozolomide and AS-252424,116,28.7,528,230,218,742,31.6,37.0,41.3,95.3,102,81.2,171,76.7,68.3
A-769662 and bortezomib,4020,299,2010,28600,-,16900,7960,3150,68.2,913,9720,4320,578,973,8270
Src-I1 and pazopanib,161,425,121,92.8,-,119,206,107,211,857,420,165,63.3,201,195
AS-252424 and OSI-906,97.2,191,168,209,-,114,123,59.6,77.2,90.0,252,39.9,109,46.0,376
OSI-906 and temozolomide,142,273,-,81.4,137,402,111,104,52.4,81.3,48.1,178,61.3,41.8,142
Src-I1 and temozolomide,102,200,48.6,104,178,233,79.8,85.8,31.5,121,119,197,61.0,210,165
Src-I1 and A-769662,131,38.0,103,58.5,131,35.0,93.7,164,31.0,92.4,140,93.7,98.5,65.2,47.8
PD173074 and temozolomide,105,25.2,-,-,130,400,95.6,93.1,13.8,32.1,131,279,73.9,125,-
PD173074 and bortezomib,1800,436,-,-,-,4440,3650,1510,42.2,1860,9180,265,304,425,-
Src-I1 and bortezomib,615,399,514,21600,-,10100,5940,2360,141,236,12300,3310,368,736,5040
A-769662 and OSI-906,111,84.3,186,77.3,-,46.2,163,63.7,94.2,66.7,126,91.0,120,43.7,69.9
Src-I1 and PD173074,69.1,343,106,60.3,106,69.0,106,20.3,13.7,64.4,36.9,238,38.3,191,69.0
perifosine and AS-252424,97.1,121,191,99.7,-,84.6,109,87.4,87.8,105,122,133,183,149,54.0
Src-I1 and AS-252424,154,129,-,-,148,58.6,125,34.5,20.8,105,189,168,88.3,64.9,-
A-769662 and PD173074,110,86.0,147,162,115,58.1,23.7,83.6,51.4,65.4,48.9,238,147,60.5,79.7
temozolomide and A-769662,253,621,110,54.1,100,178,61.6,83.5,36.8,60.1,312,245,57.6,140,67.9
A-769662 and pazopanib,111,86.4,34.3,45.3,-,36.9,22.9,121,26.8,43.2,113,162,161,144,243
bortezomib and pazopanib,2640,491,-,11500,505,16200,1680,3580,117,3380,5230,2770,960,1670,9970
bortezomib and perifosine,1830,167,-,17700,458,7870,2420,3140,93.0,3980,8250,1280,1760,352,7350
temozolomide and pazopanib,115,137,-,109,92.3,197,88.6,123,88.9,37.6,69.3,238,160,65.1,44.3
OSI-906 and perifosine,124,234,-,66.4,119,74.0,65.8,104,137,85.7,108,293,66.0,80.6,79.4

Repeated from the top, 2 entries:

Combination	WM3619	UACC-62	501mel	MZ2-MEL	WM1745	WM1716	WM451Lu	MeWo	UACC-257	RPMI-7951	G-361	SK-MEL-5	RVH-421	IST-MEL1	LB2518-MEL
perifosine and Src-I1	90.3	349	75.1	120	-	103	54.3	202	33.0	1600	231	65.0	54.4	65.3	149
BMS-536924 and PD173074	137	105	248	193	189	180	82.7	90.8	42.2	93.2	68.2	237	118	270	76.4